The target of test [1] is T1, Mfn2^C390F with a C-terminal 3×FLAG tag (UniProt Q80U63).
T1 sequence: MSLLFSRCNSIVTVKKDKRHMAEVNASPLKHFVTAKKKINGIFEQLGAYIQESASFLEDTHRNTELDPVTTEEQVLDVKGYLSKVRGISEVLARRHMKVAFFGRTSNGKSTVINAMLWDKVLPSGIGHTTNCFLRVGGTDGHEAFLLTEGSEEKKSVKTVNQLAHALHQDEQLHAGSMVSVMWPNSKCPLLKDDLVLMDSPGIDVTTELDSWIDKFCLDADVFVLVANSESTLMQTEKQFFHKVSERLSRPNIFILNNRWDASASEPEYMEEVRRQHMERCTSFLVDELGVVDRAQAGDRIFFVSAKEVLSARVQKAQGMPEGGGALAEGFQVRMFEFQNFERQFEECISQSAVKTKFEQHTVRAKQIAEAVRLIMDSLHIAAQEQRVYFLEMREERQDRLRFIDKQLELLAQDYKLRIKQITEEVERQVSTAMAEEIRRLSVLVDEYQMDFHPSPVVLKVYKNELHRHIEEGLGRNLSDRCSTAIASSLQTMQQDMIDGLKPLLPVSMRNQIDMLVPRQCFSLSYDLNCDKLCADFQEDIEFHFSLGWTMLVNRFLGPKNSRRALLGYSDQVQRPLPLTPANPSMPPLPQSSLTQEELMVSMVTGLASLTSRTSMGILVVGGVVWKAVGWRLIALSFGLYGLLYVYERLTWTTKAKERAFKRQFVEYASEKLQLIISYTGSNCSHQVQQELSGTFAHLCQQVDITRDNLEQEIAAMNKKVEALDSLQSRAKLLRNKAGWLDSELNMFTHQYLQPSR
Briefly: native gel or EMSA; BN-PAGE of isolated mitochondria incubated with 2 mM GTP at 37°C for 30 min before lysis in 1% digitonin; anti-FLAG blot. A general note: Mobility shift assays separate free from complexed probe on a gel.

The target of test [2] is T1, Mfn2^C390F with a C-terminal 3×FLAG tag. In words: native gel or EMSA; BN-PAGE of isolated mitochondria incubated with 2 mM GMPPNP, with or without 1 μM purified recombinant Bax, at 37°C for 30 min before lysis in 1% digitonin; anti-FLAG blot.

No constants are given. Whether binding was seen depends on the method and setting. Some binding calls cover weakened binding; strength is not graded here. Sequences can lack the tags named with a protein.

B1: Mfn2^C390F with a C-terminal 3×FLAG tag (natural protein, UniProt Q80U63 1-757, looked up)
chain: MSLLFSRCNSIVTVKKDKRHMAEVNASPLKHFVTAKKKINGIFEQLGAYIQESASFLEDTHRNTELDPVTTEEQVLDVKGYLSKVRGISEVLARRHMKVAFFGRTSNGKSTVINAMLWDKVLPSGIGHTTNCFLRVGGTDGHEAFLLTEGSEEKKSVKTVNQLAHALHQDEQLHAGSMVSVMWPNSKCPLLKDDLVLMDSPGIDVTTELDSWIDKFCLDADVFVLVANSESTLMQTEKQFFHKVSERLSRPNIFILNNRWDASASEPEYMEEVRRQHMERCTSFLVDELGVVDRAQAGDRIFFVSAKEVLSARVQKAQGMPEGGGALAEGFQVRMFEFQNFERQFEECISQSAVKTKFEQHTVRAKQIAEAVRLIMDSLHIAAQEQRVYFLEMREERQDRLRFIDKQLELLAQDYKLRIKQITEEVERQVSTAMAEEIRRLSVLVDEYQMDFHPSPVVLKVYKNELHRHIEEGLGRNLSDRCSTAIASSLQTMQQDMIDGLKPLLPVSMRNQIDMLVPRQCFSLSYDLNCDKLCADFQEDIEFHFSLGWTMLVNRFLGPKNSRRALLGYSDQVQRPLPLTPANPSMPPLPQSSLTQEELMVSMVTGLASLTSRTSMGILVVGGVVWKAVGWRLIALSFGLYGLLYVYERLTWTTKAKERAFKRQFVEYASEKLQLIISYTGSNCSHQVQQELSGTFAHLCQQVDITRDNLEQEIAAMNKKVEALDSLQSRAKLLRNKAGWLDSELNMFTHQYLQPSR
notes: Mitofusin 2 (Mfn2) with the CMT2A-associated substitution C390F; CMT2A-associated (patient) substitution; also called Mfn2-FLAG variant C390F; source: Mfn2-null MEFs, retroviral transduction, clonal population; isolated mitochondria, lysed; not shown: 3×FLAG, C-terminal, kept
On to B1, for which the binding entry in test [1] and in test [2] was “binds” in each case.

For the origin of these results see article PMC7136618, “Defective nucleotide-dependent assembly and membrane fusion in Mfn2 CMT2A variants improved by Bax” (Life Science Alliance, 2020).
